# According to paper PMC7862700:
# Chains of the proteins cited; added tags and fusions are not shown. Lines headed by an entry give the natural chain unless they say otherwise; changes in a name come on top.
# UniProt P32519: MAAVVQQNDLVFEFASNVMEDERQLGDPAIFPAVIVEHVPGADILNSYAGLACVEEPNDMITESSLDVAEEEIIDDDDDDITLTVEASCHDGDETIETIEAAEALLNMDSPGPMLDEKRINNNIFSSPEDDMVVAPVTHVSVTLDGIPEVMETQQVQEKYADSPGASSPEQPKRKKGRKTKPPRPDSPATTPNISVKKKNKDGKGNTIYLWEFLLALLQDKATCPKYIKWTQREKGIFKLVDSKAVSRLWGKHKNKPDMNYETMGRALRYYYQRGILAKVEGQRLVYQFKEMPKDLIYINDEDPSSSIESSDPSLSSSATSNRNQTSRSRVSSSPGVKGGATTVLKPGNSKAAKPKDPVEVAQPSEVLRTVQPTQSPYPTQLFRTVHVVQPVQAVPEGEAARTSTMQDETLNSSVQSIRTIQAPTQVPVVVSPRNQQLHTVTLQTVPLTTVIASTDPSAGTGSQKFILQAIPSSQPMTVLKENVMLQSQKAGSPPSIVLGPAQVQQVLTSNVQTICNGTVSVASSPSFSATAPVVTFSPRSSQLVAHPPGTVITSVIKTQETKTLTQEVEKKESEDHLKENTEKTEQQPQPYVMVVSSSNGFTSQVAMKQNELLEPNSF
# The entries are a selection whose mix differs from that of the whole data set. For part of these data: At the low end of the ranking the order means little. The list shows a part of the results. For part of these data: The source does not settle which construct or isoform was used.
# Target: T1, ERG (UniProt P11308)
# T1 sequence: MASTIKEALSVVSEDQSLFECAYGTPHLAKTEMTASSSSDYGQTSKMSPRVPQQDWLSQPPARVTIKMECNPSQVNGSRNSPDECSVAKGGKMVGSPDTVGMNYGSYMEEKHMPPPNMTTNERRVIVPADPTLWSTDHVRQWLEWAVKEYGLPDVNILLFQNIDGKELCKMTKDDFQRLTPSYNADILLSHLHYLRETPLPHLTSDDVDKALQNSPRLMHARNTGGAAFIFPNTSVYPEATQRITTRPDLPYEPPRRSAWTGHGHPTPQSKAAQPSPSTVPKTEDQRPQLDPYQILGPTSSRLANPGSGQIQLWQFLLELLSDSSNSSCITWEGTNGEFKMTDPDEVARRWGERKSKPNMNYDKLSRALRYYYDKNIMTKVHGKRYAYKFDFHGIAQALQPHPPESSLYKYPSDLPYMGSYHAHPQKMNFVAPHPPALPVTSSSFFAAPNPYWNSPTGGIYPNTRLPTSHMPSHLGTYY
# Assay: DAPPL (digital affinity profiling via proximity ligation, sequencing)
# Details: 10 mM Tris-HCl pH 7.5, 50 mM NaCl, 1 mM DTT, 4% glycerol, room temperature, 30 min; GST-TFs on glutathione beads, 16-mer random dsDNA library, 0.1% …; high values mean tight binding; double strand, one strand shown; scale: fold enrichment (6-mer frequency, TF over GST control)
row,Sequence,binding signal
1,ATTTTA,1.29
2,TTGAGG,1.06
3,CTATTA,1.07
4,TTTTTC,1.14
5,GTATCT,1.14
6,AGCGTC,1.1
7,ATCCTC,1.52
8,TGCCCA,1.14
9,CCGCCG,1.37
10,GGTCTG,0.973
11,GCTAGG,0.985
12,CCCACT,1.35
13,TTGCAA,1.08
14,TGCCCC,1.28
15,GAAGTG,1.87
16,GTCCCA,1.17
17,AGGAAG,1.63
18,CTCGAG,1.31
19,ATGCGT,0.989
20,CTGGTA,1.4

row,Sequence,binding signal
1,CCGGCT,1.74
2,TGTTGC,1.3
3,TTTGTA,1.53
4,CGACCA,1.15
5,TACAAT,1.29
6,ACAATT,1.32
7,TTGTTC,1.34
8,TCTGGC,1.27
9,TTCAAC,1.26
10,ACTCCG,1.43
11,CGTAAA,1.13
12,GTTTGT,0.926
13,GCGCGC,0.935
14,CACAAG,1.09
15,CCACAA,1.09
16,ACCTTG,1.1
17,TGTGGT,1.07
18,ATTTAG,1.02
19,CAGCCT,0.995
20,TCGATG,1.06

# Target: ELF1 (UniProt P32519)
# Assay: as above
# Details: 10 mM Tris-HCl pH 7.5, 50 mM NaCl, 1 mM DTT, 4% glycerol, room temperature, 30 min; GST-TFs on glutathione beads, 16-mer random dsDNA library, 0.1% …; high values mean tight binding; double strand, one strand shown; scale: fold enrichment (6-mer frequency, TF over GST control)
row,Sequence,binding signal
1,ATTTTA,1.29
2,TTGAGG,1.08
3,CTATTA,1.09
4,TTTTTC,1.22
5,GTATCT,1.18
6,AGCGTC,0.996
7,ATCCTC,1.48
8,TGCCCA,1.16
9,CCGCCG,1.26
10,GGTCTG,0.963
11,GCTAGG,0.926
12,CCCACT,1.38
13,TTGCAA,1.18
14,TGCCCC,1.27
15,GAAGTG,1.52
16,GTCCCA,1.14
17,AGGAAG,1.23
18,CTCGAG,1.28
19,ATGCGT,0.969
20,CTGGTA,1.38

row,Sequence,binding signal
1,CCGGCT,1.68
2,TGTTGC,1.31
3,TTTGTA,1.56
4,CGACCA,1.31
5,TACAAT,1.3
6,ACAATT,1.32
7,TTGTTC,1.44
8,TCTGGC,1.14
9,TTCAAC,1.33
10,ACTCCG,1.48
11,CGTAAA,1.07
12,GTTTGT,0.963
13,GCGCGC,0.948
14,CACAAG,1.18
15,CCACAA,1.21
16,ACCTTG,1.21
17,TGTGGT,1.01
18,ATTTAG,1.15
19,CAGCCT,1.06
20,TCGATG,1.11

# Target: T2, ETV4 (UniProt P43268)
# T2 sequence: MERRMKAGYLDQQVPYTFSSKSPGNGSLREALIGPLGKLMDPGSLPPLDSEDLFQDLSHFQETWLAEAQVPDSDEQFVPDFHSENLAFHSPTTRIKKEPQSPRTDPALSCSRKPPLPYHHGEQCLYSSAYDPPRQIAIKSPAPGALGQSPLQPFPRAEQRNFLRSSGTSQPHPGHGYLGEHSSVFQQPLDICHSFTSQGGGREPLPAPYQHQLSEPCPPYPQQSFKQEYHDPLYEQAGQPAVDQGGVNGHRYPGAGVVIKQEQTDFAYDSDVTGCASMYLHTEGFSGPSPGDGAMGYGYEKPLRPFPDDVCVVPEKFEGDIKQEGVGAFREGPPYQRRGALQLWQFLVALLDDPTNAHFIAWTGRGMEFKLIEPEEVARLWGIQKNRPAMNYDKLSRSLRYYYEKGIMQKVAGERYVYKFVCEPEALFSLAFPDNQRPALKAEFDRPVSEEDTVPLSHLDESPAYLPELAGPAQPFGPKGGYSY
# Assay: as above
# Details: 10 mM Tris-HCl pH 7.5, 50 mM NaCl, 1 mM DTT, 4% glycerol, room temperature, 30 min; GST-TFs on glutathione beads, 16-mer random dsDNA library, 0.1% …; high values mean tight binding; double strand, one strand shown; scale: fold enrichment (6-mer frequency, TF over GST control)
row,Sequence,binding signal
1,ATTTTA,1.31
2,TTGAGG,1.16
3,CTATTA,1.04
4,TTTTTC,1.18
5,GTATCT,1.1
6,AGCGTC,1.02
7,ATCCTC,1.46
8,TGCCCA,1.2
9,CCGCCG,1.3
10,GGTCTG,1
11,GCTAGG,0.988
12,CCCACT,1.37
13,TTGCAA,1.09
14,TGCCCC,1.36
15,GAAGTG,1.73
16,GTCCCA,1.17
17,AGGAAG,1.24
18,CTCGAG,1.33
19,ATGCGT,1.04
20,CTGGTA,1.35

row,Sequence,binding signal
1,CCGGCT,1.66
2,TGTTGC,1.33
3,TTTGTA,1.56
4,CGACCA,1.22
5,TACAAT,1.32
6,ACAATT,1.34
7,TTGTTC,1.46
8,TCTGGC,1.18
9,TTCAAC,1.22
10,ACTCCG,1.41
11,CGTAAA,1.11
12,GTTTGT,0.929
13,GCGCGC,1.05
14,CACAAG,1.08
15,CCACAA,1.18
16,ACCTTG,1.29
17,TGTGGT,1.02
18,ATTTAG,1.09
19,CAGCCT,1.06
20,TCGATG,1.1
